Measured values from the supplement of paper PMC10849652.
The list shows a part of the results.

By UniProt entry, the sequences of proteins in these tests, tags left out. Where a name states a change or a piece, a line headed by the entry shows the natural chain unless it says otherwise.
UniProt Q9HCE5: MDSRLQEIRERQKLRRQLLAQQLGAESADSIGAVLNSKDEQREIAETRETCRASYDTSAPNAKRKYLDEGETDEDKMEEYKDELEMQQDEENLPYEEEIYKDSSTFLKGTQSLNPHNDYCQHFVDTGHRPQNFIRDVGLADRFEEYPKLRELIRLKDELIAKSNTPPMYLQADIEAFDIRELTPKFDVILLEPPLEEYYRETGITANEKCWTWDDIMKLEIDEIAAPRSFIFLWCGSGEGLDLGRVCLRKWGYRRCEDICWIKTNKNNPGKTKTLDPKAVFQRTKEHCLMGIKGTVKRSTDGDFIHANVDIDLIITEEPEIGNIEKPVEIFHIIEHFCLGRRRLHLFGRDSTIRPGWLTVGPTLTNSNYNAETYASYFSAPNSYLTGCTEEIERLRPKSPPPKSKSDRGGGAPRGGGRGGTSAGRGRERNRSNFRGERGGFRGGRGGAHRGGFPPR
UniProt P56270: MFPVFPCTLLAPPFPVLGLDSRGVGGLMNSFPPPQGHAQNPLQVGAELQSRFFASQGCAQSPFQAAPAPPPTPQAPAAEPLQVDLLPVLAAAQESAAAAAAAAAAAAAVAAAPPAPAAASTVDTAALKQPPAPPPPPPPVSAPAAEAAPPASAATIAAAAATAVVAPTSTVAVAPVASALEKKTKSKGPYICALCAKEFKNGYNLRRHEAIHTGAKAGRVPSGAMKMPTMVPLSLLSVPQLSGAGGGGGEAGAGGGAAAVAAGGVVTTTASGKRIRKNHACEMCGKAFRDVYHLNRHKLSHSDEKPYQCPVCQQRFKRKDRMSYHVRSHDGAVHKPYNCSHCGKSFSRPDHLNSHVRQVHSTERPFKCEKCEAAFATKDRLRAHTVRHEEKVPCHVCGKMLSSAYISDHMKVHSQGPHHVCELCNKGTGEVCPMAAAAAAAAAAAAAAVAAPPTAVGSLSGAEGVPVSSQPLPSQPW
UniProt P31153, whole entry, looked up: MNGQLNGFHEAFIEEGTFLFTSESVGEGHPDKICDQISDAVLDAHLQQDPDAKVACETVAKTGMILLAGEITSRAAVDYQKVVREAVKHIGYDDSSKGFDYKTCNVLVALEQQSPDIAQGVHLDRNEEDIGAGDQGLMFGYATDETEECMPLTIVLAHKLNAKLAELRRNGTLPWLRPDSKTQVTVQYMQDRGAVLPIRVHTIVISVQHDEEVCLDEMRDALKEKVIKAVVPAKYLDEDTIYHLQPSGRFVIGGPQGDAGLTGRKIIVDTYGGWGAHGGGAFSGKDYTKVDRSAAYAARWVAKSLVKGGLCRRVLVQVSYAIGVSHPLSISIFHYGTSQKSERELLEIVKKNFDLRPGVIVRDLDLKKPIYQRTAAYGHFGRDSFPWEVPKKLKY
UniProt Q9H204: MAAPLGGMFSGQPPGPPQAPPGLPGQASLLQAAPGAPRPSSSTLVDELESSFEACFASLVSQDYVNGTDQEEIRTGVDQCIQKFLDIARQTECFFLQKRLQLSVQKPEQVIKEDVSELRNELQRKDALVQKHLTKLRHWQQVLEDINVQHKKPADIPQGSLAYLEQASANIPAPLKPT
UniProt A4D2B0: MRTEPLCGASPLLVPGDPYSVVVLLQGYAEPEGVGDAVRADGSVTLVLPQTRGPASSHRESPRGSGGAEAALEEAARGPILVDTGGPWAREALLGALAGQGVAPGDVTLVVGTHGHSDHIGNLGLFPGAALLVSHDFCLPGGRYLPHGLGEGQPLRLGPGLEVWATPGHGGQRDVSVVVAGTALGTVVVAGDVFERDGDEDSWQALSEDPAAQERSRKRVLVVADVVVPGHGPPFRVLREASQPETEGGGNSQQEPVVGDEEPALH
UniProt Q6P9B6: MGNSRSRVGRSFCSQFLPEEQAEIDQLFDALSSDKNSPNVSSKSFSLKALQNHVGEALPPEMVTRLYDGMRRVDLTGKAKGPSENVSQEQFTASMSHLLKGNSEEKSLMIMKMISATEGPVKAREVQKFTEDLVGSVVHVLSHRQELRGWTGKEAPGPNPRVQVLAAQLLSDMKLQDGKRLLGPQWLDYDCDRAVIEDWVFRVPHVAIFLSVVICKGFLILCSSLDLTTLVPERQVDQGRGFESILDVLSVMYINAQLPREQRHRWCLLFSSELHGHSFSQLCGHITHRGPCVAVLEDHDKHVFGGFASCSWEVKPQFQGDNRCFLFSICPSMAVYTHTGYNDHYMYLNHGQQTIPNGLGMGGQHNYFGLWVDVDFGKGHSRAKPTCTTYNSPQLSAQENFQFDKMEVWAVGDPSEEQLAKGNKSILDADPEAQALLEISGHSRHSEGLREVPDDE
UniProt Q96GX5: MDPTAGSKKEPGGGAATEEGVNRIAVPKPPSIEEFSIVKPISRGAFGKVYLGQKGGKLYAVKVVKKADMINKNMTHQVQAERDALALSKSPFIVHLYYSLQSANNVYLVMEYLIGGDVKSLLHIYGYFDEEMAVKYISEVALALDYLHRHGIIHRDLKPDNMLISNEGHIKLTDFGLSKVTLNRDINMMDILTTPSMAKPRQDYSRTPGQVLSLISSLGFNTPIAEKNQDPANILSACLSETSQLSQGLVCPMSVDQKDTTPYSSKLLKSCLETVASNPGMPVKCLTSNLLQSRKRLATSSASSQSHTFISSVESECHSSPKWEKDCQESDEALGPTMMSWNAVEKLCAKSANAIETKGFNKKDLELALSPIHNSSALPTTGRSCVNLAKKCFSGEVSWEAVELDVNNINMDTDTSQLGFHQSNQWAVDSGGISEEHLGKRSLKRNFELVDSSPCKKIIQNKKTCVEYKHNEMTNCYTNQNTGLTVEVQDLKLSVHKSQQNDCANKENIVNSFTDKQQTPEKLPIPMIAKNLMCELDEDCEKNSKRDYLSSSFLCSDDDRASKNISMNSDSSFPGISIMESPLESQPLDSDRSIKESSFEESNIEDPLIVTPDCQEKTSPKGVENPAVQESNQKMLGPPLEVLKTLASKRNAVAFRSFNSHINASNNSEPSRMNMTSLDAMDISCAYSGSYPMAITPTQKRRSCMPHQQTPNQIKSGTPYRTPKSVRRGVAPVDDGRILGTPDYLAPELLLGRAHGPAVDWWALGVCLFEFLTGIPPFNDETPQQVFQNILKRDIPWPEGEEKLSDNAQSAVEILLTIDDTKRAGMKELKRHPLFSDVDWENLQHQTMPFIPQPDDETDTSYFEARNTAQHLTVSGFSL
UniProt P33993, whole entry, looked up: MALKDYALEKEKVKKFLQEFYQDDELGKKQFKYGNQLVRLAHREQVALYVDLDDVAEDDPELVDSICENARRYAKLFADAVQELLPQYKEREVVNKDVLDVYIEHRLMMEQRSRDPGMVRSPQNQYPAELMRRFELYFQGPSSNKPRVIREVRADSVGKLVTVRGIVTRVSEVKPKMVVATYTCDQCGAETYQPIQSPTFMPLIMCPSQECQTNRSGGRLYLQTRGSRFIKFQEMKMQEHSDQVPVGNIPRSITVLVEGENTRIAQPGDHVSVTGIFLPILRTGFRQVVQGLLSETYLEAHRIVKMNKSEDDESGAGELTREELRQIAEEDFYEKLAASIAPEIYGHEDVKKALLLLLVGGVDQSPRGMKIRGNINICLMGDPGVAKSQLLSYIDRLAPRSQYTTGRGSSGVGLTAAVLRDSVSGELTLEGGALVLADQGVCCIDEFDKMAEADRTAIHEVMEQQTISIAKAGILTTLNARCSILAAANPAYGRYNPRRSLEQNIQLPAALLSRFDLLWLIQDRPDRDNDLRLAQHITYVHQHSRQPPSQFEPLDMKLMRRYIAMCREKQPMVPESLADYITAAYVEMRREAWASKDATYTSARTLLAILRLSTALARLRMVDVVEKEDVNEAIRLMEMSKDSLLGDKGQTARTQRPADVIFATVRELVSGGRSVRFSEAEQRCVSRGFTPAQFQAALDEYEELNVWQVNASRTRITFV
UniProt O75586: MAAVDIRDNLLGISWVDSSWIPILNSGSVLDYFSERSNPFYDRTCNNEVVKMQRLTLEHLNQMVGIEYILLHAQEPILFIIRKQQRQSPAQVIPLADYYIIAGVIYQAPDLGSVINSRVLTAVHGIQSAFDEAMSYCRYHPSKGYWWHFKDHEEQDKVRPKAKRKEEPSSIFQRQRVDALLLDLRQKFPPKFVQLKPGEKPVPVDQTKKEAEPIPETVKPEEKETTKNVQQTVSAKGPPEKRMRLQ
UniProt Q14680: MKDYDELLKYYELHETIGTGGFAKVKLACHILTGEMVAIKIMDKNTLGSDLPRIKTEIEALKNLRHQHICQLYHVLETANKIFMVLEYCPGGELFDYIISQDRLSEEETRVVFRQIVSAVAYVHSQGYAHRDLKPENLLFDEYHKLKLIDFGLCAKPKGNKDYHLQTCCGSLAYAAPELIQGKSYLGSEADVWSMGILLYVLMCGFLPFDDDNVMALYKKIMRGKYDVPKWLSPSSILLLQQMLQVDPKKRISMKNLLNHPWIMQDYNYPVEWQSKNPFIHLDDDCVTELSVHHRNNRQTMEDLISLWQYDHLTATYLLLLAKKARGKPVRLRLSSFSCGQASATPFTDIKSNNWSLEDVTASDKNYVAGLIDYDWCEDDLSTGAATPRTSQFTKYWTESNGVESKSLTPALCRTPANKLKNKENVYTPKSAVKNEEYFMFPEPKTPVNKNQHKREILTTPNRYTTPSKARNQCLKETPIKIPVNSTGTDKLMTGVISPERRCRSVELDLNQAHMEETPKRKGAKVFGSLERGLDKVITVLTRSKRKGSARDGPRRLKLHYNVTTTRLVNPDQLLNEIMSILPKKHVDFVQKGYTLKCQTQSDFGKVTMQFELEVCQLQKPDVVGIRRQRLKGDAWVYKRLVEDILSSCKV
UniProt Q14566: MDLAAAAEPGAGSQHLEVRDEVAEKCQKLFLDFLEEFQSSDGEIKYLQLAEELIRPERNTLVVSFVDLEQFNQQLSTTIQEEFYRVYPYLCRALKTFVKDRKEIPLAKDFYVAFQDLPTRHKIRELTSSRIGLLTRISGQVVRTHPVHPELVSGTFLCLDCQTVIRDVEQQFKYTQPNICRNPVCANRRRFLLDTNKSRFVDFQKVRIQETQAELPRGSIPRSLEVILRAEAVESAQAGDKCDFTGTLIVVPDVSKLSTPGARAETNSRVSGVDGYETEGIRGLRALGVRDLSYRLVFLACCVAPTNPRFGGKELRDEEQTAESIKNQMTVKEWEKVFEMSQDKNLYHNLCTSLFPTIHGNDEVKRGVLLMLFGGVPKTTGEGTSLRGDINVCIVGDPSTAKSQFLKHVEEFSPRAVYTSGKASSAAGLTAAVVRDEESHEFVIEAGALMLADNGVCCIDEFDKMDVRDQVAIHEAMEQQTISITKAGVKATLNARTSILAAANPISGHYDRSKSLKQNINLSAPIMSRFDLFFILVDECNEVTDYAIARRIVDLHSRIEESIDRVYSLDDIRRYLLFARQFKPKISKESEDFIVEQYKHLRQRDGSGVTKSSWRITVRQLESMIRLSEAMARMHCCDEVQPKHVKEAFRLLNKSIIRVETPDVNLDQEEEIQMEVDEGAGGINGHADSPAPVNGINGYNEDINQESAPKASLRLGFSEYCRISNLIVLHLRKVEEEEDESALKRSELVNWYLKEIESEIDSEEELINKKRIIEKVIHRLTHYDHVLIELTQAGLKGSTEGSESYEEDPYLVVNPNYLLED
UniProt Q7Z434: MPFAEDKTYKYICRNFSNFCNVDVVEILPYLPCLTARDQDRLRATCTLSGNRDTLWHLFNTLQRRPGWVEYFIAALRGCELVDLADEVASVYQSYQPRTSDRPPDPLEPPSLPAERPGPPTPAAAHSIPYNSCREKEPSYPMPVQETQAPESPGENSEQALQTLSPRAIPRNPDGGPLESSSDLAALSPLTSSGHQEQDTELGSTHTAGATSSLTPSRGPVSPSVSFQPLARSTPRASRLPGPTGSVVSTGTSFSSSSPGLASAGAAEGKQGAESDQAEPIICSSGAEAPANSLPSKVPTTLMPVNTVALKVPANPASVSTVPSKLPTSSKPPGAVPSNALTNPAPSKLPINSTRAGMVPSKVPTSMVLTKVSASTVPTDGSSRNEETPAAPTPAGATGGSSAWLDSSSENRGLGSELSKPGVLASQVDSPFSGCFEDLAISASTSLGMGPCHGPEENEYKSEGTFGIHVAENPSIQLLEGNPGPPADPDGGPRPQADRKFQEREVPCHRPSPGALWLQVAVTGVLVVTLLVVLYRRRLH
UniProt O95983: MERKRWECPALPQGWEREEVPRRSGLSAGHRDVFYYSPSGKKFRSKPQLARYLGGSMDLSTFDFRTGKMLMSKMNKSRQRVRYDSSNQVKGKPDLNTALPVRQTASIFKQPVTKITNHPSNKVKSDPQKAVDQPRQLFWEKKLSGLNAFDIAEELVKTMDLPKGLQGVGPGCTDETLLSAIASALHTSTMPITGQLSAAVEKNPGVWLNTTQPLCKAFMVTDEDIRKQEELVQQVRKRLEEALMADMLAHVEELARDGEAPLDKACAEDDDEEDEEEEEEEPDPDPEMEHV
UniProt Q9Y3C7: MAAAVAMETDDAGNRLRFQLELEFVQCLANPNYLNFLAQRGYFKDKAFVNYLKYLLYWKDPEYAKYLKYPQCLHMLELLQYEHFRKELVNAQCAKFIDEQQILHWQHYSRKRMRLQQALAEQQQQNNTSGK

Experiments:
Assay in all cases: log2 fold change, soluble protein after heating vs DMSO (PISA); higher = thermal stabilisation; K562 cells, 10 uM, 30 min; active = over 0.2 and 3.5 SD of the protein, either way, in both replicates (recomputed)
[1] = compound: C1=CC=C(C=C1)[C@H](COC2=CC3=C(C=C2)NC(=O)N3)NC(=O)C4=CC=CN(C4=O)CC5=CC(=C(C=C5)F)F
Outline: (§1)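 K562 cells at 2×10^6 cells/mL were exposed to 10 μM compound for 30 min, then aliquots were heated for 3 min across 48°C-58°C, pooled, and extracted in PBS containing 0.5% NP-40 at 4°C. The supernatant after 21,000xg for 90 min was taken as soluble protein and measured by TMTpro 16plex LC-MS/MS with channel sums equalised. Thermal stability is reported relative to control samples, with values from duplicates. Fold changes are given on a log2 scale.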

[2] = compound: CC1=C(SC2=C1C(=N[C@H](C3=NN=C(N32)C)CC(=O)N)C4=CC=C(C=C4)Cl)C
Outline: as §1

[3] = compound: CC1=C2C(=CC=C1)N=C(N(C2=O)C3=CC=CC=C3C)CN4C=NC5=C(N=CN=C54)N
Outline: as §1

[4] = compound: Cc1sc2c(c1C)C(c1ccc(Cl)cc1)=N[C@@H](CC(=O)OC(C)(C)C)c1nnc(C)n1-2
Outline: as §1

[5] = compound: c1ccc([C@@H]2C[C@H]2NC2CCNCC2)cc1
Outline: as §1

Target	log2 fold change [1]	log2 fold change [2]	log2 fold change [3]	log2 fold change [4]	log2 fold change [5]
ME1 (UniProt P48163)	inactive: 0.03	inactive: 0.047	inactive: -0.002	inactive: 0.017	inactive: 0.006
MFSD11 (UniProt O43934)	inactive: 0.04	inactive: 0.11	inactive: 0.104	inactive: -0.03	inactive: -0.049
MBOAT2 (UniProt Q6ZWT7)	inactive: -0.03	inactive: 0.106	inactive: -0.042	inactive: -0.056	inactive: 0.063
MED14 (UniProt O60244)	inactive: -0.188	inactive: 0.043	inactive: 0.132	inactive: 0.175	inactive: -0.112
MCRIP1 (UniProt I3L4Q0)	inactive: 0.042	inactive: 0.087	inactive: 0.04	inactive: -0.002	inactive: 0.02
MCEE (UniProt Q96PE7)	inactive: 0.022	inactive: 0.161	inactive: 0.064	inactive: -0.16	inactive: 0.084
MBTPS1 (UniProt Q14703)	inactive: 0.162	inactive: 0	inactive: -0.043	inactive: 0.023	inactive: 0.102
MFHAS1 (UniProt Q9Y4C4)	inactive: -0.016	inactive: 0.138	inactive: 0.049	inactive: 0.246	inactive: 0.092
METTL14 (UniProt Q9HCE5)	inactive: -0.026	inactive: 0.001	inactive: -0.035	inactive: -0.02	inactive: 0.005
MAZ isoform 2 (UniProt P56270)	inactive: 0.07	inactive: -0.299	inactive: -0.212	inactive: 0.169	inactive: 0.121
MAT2A (UniProt P31153)	inactive: 0.007	inactive: -0.011	inactive: -0.031	inactive: 0.024	inactive: 0.038
MDC1 (UniProt Q14676)	inactive: -0.005	inactive: -0.045	inactive: -0.092	inactive: 0.068	inactive: 0.04
MESD (UniProt Q14696)	inactive: 0.011	inactive: 0.021	inactive: 0.029	inactive: 0.004	inactive: 0.001
METTL5 (UniProt Q9NRN9)	inactive: 0.025	inactive: 0.037	inactive: 0.037	inactive: -0.004	inactive: 0.037
MCL1 (UniProt Q07820)	inactive: -0.013	inactive: 0.125	inactive: 0.135	inactive: 0.057	inactive: 0.073
MED23 (UniProt Q9ULK4)	inactive: -0.054	inactive: -0.003	inactive: -0.031	inactive: 0.021	inactive: -0.006
METTL7A (UniProt Q9H8H3)	inactive: 0.056	inactive: 0.049	inactive: 0.021	inactive: -0.05	inactive: 0.009
MGST3 (UniProt O14880)	inactive: 0.046	inactive: 0.032	inactive: 0.005	inactive: 0.006	inactive: 0.054
MED28 (UniProt Q9H204)	inactive: 0.076	inactive: 0.144	–	inactive: -0.151	inactive: -0.026

Reformatted: results already given.
Target | log2 fold change [1] | log2 fold change [2] | log2 fold change [3] | log2 fold change [4] | log2 fold change [5]
MBOAT2 (UniProt Q6ZWT7) | inactive: -0.03 | inactive: 0.106 | inactive: -0.042 | inactive: -0.056 | inactive: 0.063
MBTPS1 (UniProt Q14703) | inactive: 0.162 | inactive: 0 | inactive: -0.043 | inactive: 0.023 | inactive: 0.102
MAZ isoform 2 (UniProt P56270) | inactive: 0.07 | inactive: -0.299 | inactive: -0.212 | inactive: 0.169 | inactive: 0.121
MED23 (UniProt Q9ULK4) | inactive: -0.054 | inactive: -0.003 | inactive: -0.031 | inactive: 0.021 | inactive: -0.006

Later entries:

Target	log2 fold change [1]	log2 fold change [2]	log2 fold change [3]	log2 fold change [4]	log2 fold change [5]
MBLAC2 (UniProt Q68D91)	inactive: -0.02	inactive: 0.006	inactive: 0.056	inactive: -0.042	inactive: 0.009
MCCC2 (UniProt Q9HCC0)	inactive: 0.029	inactive: 0.038	inactive: -0.027	inactive: -0.022	inactive: 0.026
METAP1D (UniProt Q6UB28)	inactive: 0.106	inactive: -0.125	inactive: 0.083	inactive: 0.08	inactive: 0.127
MBLAC1 (UniProt A4D2B0)	inactive: -0.019	inactive: 0.067	inactive: -0.064	–	inactive: -0.029
MEAK7 (UniProt Q6P9B6)	inactive: -0.009	inactive: 0.051	inactive: 0.042	inactive: -0.009	inactive: -0.048
MCFD2 (UniProt Q8NI22)	inactive: -0.043	inactive: 0.027	inactive: -0.192	inactive: 0.022	inactive: 0.122
MASTL (UniProt Q96GX5)	inactive: 0.047	inactive: 0.081	inactive: 0.009	–	inactive: -0.02
MCM7 (UniProt P33993)	inactive: -0.03	inactive: 0.045	inactive: -0.013	inactive: -0.013	inactive: -0.067
MED6 (UniProt O75586)	inactive: -0.109	inactive: -0.041	inactive: -0.209	–	inactive: 0.027
MELK (UniProt Q14680)	inactive: 0.044	inactive: -0.057	–	inactive: 0.197	inactive: -0.057
MECR (UniProt Q9BV79)	inactive: 0.034	inactive: 0.033	inactive: 0.042	inactive: -0.037	inactive: -0.026
MGAT4B isoform 3 (UniProt Q9UQ53)	inactive: -0.022	inactive: -0.018	inactive: 0.102	inactive: -0.074	inactive: 0.026
MED20 (UniProt Q9H944)	inactive: -0.026	inactive: 0.125	inactive: -0.017	inactive: -0.022	inactive: 0.015
MDN1 (UniProt Q9NU22)	inactive: -0.08	inactive: 0.041	inactive: 0.059	inactive: -0.054	inactive: -0.049
MED7 (UniProt O43513)	inactive: -0.049	inactive: 0.029	inactive: 0.017	inactive: 0.016	inactive: 0.076
MED8 isoform 2 (UniProt Q96G25)	inactive: 0.011	inactive: -0.053	active: -0.381	–	inactive: 0.039
MAST4 (UniProt O15021)	inactive: -0.081	inactive: 0.037	inactive: 0.061	inactive: -0.002	inactive: -0.041
MFSD1 isoform 6 (UniProt Q9H3U5)	inactive: 0.001	inactive: 0.045	inactive: 0.043	inactive: -0.029	inactive: 0.039
METTL25 (UniProt Q8N6Q8)	inactive: -0.185	inactive: -0.09	inactive: 0.077	–	inactive: 0.043

Target	log2 fold change [1]	log2 fold change [2]	log2 fold change [3]	log2 fold change [4]	log2 fold change [5]
METTL9 (UniProt Q9H1A3)	inactive: 0.167	inactive: 0.143	inactive: 0.066	inactive: 0.075	inactive: 0.16
MFSD6 (UniProt Q6ZSS7)	inactive: 0.008	inactive: 0.001	inactive: -0.113	–	inactive: -0.08
MCUR1 (UniProt Q96AQ8)	inactive: -0.02	inactive: 0.018	inactive: 0.007	inactive: -0.008	inactive: -0.023
MIA3 (UniProt Q5JRA6)	inactive: -0.011	inactive: -0.018	inactive: 0.047	inactive: 0.008	inactive: 0.036
MBOAT7 (UniProt Q96N66)	inactive: 0.033	inactive: 0.014	inactive: 0.05	inactive: -0.035	inactive: 0.035
MCM2 (UniProt P49736)	inactive: -0.049	inactive: 0.048	inactive: 0.036	inactive: -0.029	inactive: -0.03
MCM6 (UniProt Q14566)	inactive: -0.013	inactive: 0.042	inactive: 0.03	inactive: -0.011	inactive: -0.027
MAVS (UniProt Q7Z434)	inactive: 0.005	inactive: 0.037	inactive: 0.016	inactive: -0.034	inactive: 0.021
MCUB (UniProt Q9NWR8)	inactive: -0.085	inactive: 0.032	inactive: 0.032	inactive: -0.018	inactive: -0.091
MBD3 (UniProt O95983)	inactive: 0.015	inactive: -0.018	inactive: 0.032	inactive: -0.018	inactive: 0.057
MEF2A isoform 2 (UniProt Q02078)	–	inactive: 0.015	inactive: -0.154	–	inactive: 0.08
METTL2B (UniProt Q6P1Q9)	–	inactive: -0.07	inactive: 0.03	–	inactive: 0.021
MED31 (UniProt Q9Y3C7)	–	–	inactive: 0.035	–	–
MBNL1 isoform 5 (UniProt Q9NR56)	inactive: 0.067	–	–	inactive: -0.278	–
MCM10 (UniProt Q7L590)	inactive: -0.04	–	inactive: 0.204	inactive: 0.032	–
MED27 (UniProt Q6P2C8)	inactive: 0.087	inactive: 0.005	–	–	inactive: 0.04
MEGF9 (UniProt Q9H1U4)	inactive: 0.025	inactive: 0.186	–	inactive: 0.055	inactive: -0.053
METTL15 (UniProt A6NJ78)	inactive: -0.172	–	–	inactive: 0.087	–
MAU2 (UniProt Q9Y6X3)	–	–	inactive: 0.215	inactive: -0.031	–
